About 1,400 (4.5%) of roughly 31,000 sequences were called active.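 The calls were made as follows: active = median seed-adjusted z-score above 1 or below -1; inactive = the rest.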 The list shows a part of the results.

A short description of the assay: Novel Modifiers of Survival Motor Neuron (SMN) Protein: Gene Identification via Genome-wide siRNA Screen.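 Also: luminescence tracks full-length SMN protein made from the SMN2 reporter.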 The following applies: HEK293T SMN2-luciferase reporter, siRNA knockdown, 72 h; actives lie on both sides. In short, it runs like this: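 siRNA screen, 10418 genes ×3 siRNAs; 1 pmol/well, lipid reverse transfection into HEK293T SMN2-luc reporter line. 72 h, 37 °C, 5% CO2; ONE-Glo readout. Data: neg-ctrl normalized, log10, MAD; hit = MAD >1.0 or < -1.0.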
For orientation: In a reporter assay the amount or activity of a reporter protein is the signal.
UCAUGAACAUUGUCAAUGATT against ADAMTS2: the median seed-adjusted z-score is inactive: -0.338. As to UCCUCUAACUCACUGCCUATT against WISP2, the median seed-adjusted z-score is inactive: -0.0731. With CCAGAAUGCAGGGAAGUAATT against APOH, the median seed-adjusted z-score is inactive: 0.0283.

CCACGAAAGUAGCAAUCAATT against YES1: the median seed-adjusted z-score is inactive: -0.508. Consider CAUCCUUCCUGCUAUCCUATT against SLC2A3, for which the median seed-adjusted z-score is inactive: -0.277.

On to CCACAUUGCUGUACGCACATT against DALRD3, for which the median seed-adjusted z-score is inactive: 0.338. For AGAAAUUCAUCUCAGAUAUTT against TAF10, the median seed-adjusted z-score is inactive: -0.587. For the sequence GCUGUGGACUCCAAACAGATT against DAB2IP, the median seed-adjusted z-score is inactive: 0.505. In the case of ACGGCAAACUCAUCACUAUTT against ACTL7B, the median seed-adjusted z-score is inactive: 0.572. On to GUCUGUUCGUGGGCCGAAATT against STUB1, for which the median seed-adjusted z-score is inactive: 0.202. Consider GCACCUGAAUGACACGCAATT against HOXD1, for which the median seed-adjusted z-score is inactive: 0.144.

In the case of GAAACUAGGCCUAACUGAATT against CASQ1, the median seed-adjusted z-score is inactive: -0.0307.

On to GAGUGAUACUCAUAUCUCUTT against VN1R1, for which the median seed-adjusted z-score was inactive: 0.531.

As for GCCUGGACUUCUUCGAGAATT against CSNK1G2, the median seed-adjusted z-score was inactive: 0.511. Turning to GCUCUAAACCAGAACGGGATT against ARAP3, the median seed-adjusted z-score was inactive: -0.00876.

Regarding CAUUGGUGGUAUGACAAGATT against SPINLW1, the median seed-adjusted z-score was inactive: 0.00582. As for GCACAAGCAUUGGAAAUAATT against MAP4, the figure is active: 1.67; as for GUACAGUCACAAGGACAUATT against FASTK, inactive: 0.306; as for GCACCUACCUAGGCUUGGATT against FUK, inactive: -0.0381. For the sequence CAGCUCAACUCAAACGGUUTT against PCDHGA4, the median seed-adjusted z-score was inactive: 0.0698.

On to CAUGGACGAGAUCAAGGAATT against AGXT, for which the median seed-adjusted z-score is inactive: 0.017. Regarding GCAGUAACGAGGAACUGAATT against GALNTL4, the median seed-adjusted z-score is inactive: 0. Regarding CAACAAUAGGCAAAAAGAUTT against SELE, the median seed-adjusted z-score was inactive: 0.469. As for GUCUAAUGAGAACUCCAGATT against IRF7, the figure is inactive: -0.304. As to CACUCAUCGAUGUACAUUUTT against TNNT1, the median seed-adjusted z-score was inactive: 0. Turning to GCACGUAAGCUGAACACUATT against PRC1, the median seed-adjusted z-score was inactive: -0.0195.

Consider CGCUGGACUUCGUCAAGAATT against KCNC4, for which the median seed-adjusted z-score was inactive: -0.433. With GCACCACUCAAGACCAAAUTT against ARX, the median seed-adjusted z-score is inactive: 0.756. Turning to GAGCAGACAUUGGAAUGGATT against MTHFD1, the median seed-adjusted z-score is inactive: 0.554.

Consider AACUCAACAUGUACGGUUUTT against HSF4, for which the median seed-adjusted z-score is inactive: 0.926.

Values taken from PubChem BioAssay AID1347426 (Functional Genomics Laboratory (NCATS/FGL), 2020).
